Experimental data taken from US20200397795A1, “PROPHYLACTIC TREATMENT OF VENOUS THROMBOEMBOLISM” (JANSSEN PHARMACEUTICALS, INC., priority 2019, published 2020).

Tested on: symptomatic VTE and VTE-related death in high-risk, medically ill subjects
Assay: MARINER (Study 2): efficacy of rivaroxaban vs placebo for 45 days post-hospital discharge
Format: in vivo, human
Conditions: Up-to-Day 45; ITT
Excerpt: The primary objective of Study 2 (MARINER) was to assess the efficacy and safety of rivaroxaban, compared with placebo in the prevention of symptomatic venous thromboembolism (VTE; lower extremity deep vein thrombosis [DVT] and non-fatal pulmonary embolism [PE]) and VTE-related death (death due to PE or death in which PE could not be ruled out as the cause) post-hospital discharge in high-risk, medically ill subjects.
This was a multicenter, prospective, randomized, double-blind, placebo-controlled, event-driven study conducted in multiple geographic regions (North America, South America, Eastern Europe, Western Europe, and Other locations) that evaluated rivaroxaban, compared with placebo, in the prevention of symptomatic VTE events and VTE-related deaths for a period of 45 days post-hospital discharge in high-risk, medically ill subjects. The study consisted of a screening phase, a 45-day double-blind treatment phase, and a 30-day safety follow-up period (which was also the end of study [EOS]). The total duration for a subject who completed the study (including the safety follow-up period) after randomization was 75 (±5) days.
The index hospitalization was at least 3 and no more than 10 consecutive days in duration. […] Subjects received thromboprophylaxis during the index hospitalization with low molecular weight heparin (LMWH) or unfractionated heparin (UFH).
Randomization occurred on the same day or the day after the subject left the hospital, and occurred at the hospital, clinic, or other discharge destination. Eligible subjects were to be randomly assigned (1:1) by strata (by creatinine clearance [CrCl] level [≥30-<50 mL/min versus ≥50 mL/min] and by country) to receive either rivaroxaban or placebo. Subjects with a baseline CrCl of ≥50 mL/min were to receive rivaroxaban 10 mg once daily (QD) or placebo QD. […] The subject was assessed 30 days later for safety follow-up. […]
The primary and secondary efficacy outcomes were analyzed based on the time from randomization to the first occurrence in the ITT analysis set and Up-to-Day 45 analysis phase. […]

**Q.** How did the “Mean total duration of all re-hospitalization” value turn out when O=C(NC[C@H]1CN(c2ccc(N3CCOCC3=O)cc2)C(=O)O1)c1ccc(Cl)s1 [Rivaroxaban, 5-chloro-N-({(5S)-2-oxo-3-[4-(3-oxo-4-morpholinyl)phenyl]-1,3,oxazolidin-5-yl}methyl)-2-thiophenecarboxamide] was run?
**A.** 10.8 days

**Q.** And the “Re-hospitalized subjects with a total duration of 3 days in the hospital” value?
**A.** 91.3%

**Q.** What about the “Subjects with at least 1 re-hospitalization” value of the same compound?
**A.** 6.3%
